Source: PMC5356016, “Suppression of Sin3A activity promotes differentiation of pluripotent cells into functional neurons” (Scientific Reports, 2017)
No constants are given. Whether binding was seen depends on the method and setting. In cells and extracts the contact can be indirect. Some results given as binding are weak or reduced against the parent protein; the word gives no strength. Each block holds one binder with its values, some of them ahead of it.

Columns and labels:
[1] = biological target: T1, repressor element-1 (RE1) silencing transcription factor (mouse (endogenous in P19)) (UniProt Q8VIG1); assay: co-IP; P19 cell lysates incubated 2 h with or without SAP25 or MAD1 peptide; REST precipitated with anti-REST and probed with anti-Sin3A, and conversely Sin3A precipitated with anti-Sin3A and blotted with anti-REST
T1 sequence: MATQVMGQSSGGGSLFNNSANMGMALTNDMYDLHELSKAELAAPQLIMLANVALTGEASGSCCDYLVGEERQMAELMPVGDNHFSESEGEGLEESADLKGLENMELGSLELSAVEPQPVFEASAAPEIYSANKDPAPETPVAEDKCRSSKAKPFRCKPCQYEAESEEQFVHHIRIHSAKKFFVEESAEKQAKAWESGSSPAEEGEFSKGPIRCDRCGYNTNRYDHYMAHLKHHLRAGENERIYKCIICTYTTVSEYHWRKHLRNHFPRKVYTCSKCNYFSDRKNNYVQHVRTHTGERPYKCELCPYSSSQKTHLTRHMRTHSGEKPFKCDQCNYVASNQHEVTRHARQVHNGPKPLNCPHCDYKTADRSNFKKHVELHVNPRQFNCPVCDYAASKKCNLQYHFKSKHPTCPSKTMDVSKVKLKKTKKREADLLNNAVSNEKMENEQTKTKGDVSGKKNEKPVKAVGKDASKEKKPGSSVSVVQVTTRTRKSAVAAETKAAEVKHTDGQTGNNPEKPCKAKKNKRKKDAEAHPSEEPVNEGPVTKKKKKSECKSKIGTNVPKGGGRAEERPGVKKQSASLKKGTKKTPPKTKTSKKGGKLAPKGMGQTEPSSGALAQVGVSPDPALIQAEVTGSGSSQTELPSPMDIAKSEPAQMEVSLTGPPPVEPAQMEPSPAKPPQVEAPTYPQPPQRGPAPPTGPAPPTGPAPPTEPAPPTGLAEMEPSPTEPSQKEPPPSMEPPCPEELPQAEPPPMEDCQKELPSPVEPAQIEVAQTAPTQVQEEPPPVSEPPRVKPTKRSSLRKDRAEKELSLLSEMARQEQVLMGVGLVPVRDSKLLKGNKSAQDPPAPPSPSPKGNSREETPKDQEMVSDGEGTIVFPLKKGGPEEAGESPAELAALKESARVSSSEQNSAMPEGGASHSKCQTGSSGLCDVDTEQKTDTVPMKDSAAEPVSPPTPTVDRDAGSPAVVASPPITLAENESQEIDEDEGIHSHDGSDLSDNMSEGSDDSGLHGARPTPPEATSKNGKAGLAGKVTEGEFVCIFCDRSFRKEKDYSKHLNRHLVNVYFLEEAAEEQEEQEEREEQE

[2] = biological target: T2, Sin3A (mouse (endogenous in P19)) (UniProt Q60520); assay: co-IP; competition: synthetic peptide at several concentrations added to P19 cell lysates for 2 h before immunoprecipitation of REST or Sin3A; loss of the co-precipitated partner read by western blot; only the binder purified
T2 sequence: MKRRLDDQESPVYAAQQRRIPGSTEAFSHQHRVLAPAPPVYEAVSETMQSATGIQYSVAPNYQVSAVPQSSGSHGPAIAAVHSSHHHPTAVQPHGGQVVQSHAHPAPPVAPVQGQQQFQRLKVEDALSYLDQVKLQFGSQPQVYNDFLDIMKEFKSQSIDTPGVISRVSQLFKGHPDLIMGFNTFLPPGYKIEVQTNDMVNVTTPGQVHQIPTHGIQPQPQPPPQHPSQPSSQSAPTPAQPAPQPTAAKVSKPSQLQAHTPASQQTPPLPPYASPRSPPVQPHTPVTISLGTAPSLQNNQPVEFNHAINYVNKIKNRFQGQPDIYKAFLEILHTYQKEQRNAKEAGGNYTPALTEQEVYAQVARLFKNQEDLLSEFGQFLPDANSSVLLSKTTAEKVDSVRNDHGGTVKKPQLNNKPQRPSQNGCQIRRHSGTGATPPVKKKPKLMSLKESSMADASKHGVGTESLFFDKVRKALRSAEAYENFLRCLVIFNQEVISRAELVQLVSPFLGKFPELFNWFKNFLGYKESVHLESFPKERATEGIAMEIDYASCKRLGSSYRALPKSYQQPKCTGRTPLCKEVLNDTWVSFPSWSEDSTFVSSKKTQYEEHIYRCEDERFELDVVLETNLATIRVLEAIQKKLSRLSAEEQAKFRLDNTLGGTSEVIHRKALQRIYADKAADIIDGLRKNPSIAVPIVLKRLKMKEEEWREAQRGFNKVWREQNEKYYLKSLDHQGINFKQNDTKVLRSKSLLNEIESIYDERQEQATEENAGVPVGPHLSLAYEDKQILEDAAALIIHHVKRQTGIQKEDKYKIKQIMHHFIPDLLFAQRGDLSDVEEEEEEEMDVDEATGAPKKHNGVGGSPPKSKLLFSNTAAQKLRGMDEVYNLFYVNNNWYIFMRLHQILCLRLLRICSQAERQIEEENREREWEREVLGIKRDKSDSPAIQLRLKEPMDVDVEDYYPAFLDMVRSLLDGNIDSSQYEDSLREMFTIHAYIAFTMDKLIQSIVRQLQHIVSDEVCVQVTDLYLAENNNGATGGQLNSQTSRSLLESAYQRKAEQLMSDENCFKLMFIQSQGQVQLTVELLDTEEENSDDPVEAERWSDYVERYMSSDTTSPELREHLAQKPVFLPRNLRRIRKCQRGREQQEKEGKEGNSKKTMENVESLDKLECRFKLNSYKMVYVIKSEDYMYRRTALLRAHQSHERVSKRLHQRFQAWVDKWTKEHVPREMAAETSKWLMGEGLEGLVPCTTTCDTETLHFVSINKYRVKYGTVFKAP

binding [1]: binds
B1: Sin3A (protein, UniProt Q60520 1-1274)
chain: T2 sequence

binding [2]: binds
B2: Mad1 peptide (sequence 6-21 of the Mad1 protein) (peptide)
peptide: RMNIQMLLEAADYLER
notes: Mad1 protein, residues 6-21; source: synthetic peptide (solid support, Fmoc/t-Bu strategy)
